{
  "source": "paper PMC4462140",
  "target": "myristoylated zGCAP7 (zebrafish) (UniProt Q5MAC7)",
  "experiment": "SEC; analytical size exclusion chromatography of purified myristoylated zGCAPs on a Primaide HPLC system, as described previously (refs 12, 18, 30); Ca2+ dependence tested; data not shown; both purified",
  "note": "Results are given in words; binding and its absence hold for the method and conditions named. Some results given as binding are weak or reduced against the parent protein; the word gives no strength.",
  "data": [
    {"binder": "myristoylated zGCAP7 (protein, UniProt Q5MAC7 1-187, N-terminal myristoyl group) MGQNQSDEEEEEVELTEIQPLYTRFMKVCPSGALHLHEFRRIFGVQSSSEEEALYMETIFKSFDTNRDNVIDFMEFVAAVHLVLRGNLEDRLKWSFKVYDRDENGKLDRQEVIHVIRILCKLKKNRINMTPVEICDRIFELLDENNDGQISLSEFLEGAEKDAWIMDLLKLDTNARVWFRDNLGKKT", "values": [
      {"measurement": "binding", "value": "binds"}
    ]}
  ]
}
